Measured values as given in patent CN111454365A.
No constants are given. Whether binding was seen depends on the method and setting. Some binding calls cover weakened binding; strength is not graded here.

Sequences of proteins named here, by UniProt entry; tags and fusion partners are left off.
UniProt P52701: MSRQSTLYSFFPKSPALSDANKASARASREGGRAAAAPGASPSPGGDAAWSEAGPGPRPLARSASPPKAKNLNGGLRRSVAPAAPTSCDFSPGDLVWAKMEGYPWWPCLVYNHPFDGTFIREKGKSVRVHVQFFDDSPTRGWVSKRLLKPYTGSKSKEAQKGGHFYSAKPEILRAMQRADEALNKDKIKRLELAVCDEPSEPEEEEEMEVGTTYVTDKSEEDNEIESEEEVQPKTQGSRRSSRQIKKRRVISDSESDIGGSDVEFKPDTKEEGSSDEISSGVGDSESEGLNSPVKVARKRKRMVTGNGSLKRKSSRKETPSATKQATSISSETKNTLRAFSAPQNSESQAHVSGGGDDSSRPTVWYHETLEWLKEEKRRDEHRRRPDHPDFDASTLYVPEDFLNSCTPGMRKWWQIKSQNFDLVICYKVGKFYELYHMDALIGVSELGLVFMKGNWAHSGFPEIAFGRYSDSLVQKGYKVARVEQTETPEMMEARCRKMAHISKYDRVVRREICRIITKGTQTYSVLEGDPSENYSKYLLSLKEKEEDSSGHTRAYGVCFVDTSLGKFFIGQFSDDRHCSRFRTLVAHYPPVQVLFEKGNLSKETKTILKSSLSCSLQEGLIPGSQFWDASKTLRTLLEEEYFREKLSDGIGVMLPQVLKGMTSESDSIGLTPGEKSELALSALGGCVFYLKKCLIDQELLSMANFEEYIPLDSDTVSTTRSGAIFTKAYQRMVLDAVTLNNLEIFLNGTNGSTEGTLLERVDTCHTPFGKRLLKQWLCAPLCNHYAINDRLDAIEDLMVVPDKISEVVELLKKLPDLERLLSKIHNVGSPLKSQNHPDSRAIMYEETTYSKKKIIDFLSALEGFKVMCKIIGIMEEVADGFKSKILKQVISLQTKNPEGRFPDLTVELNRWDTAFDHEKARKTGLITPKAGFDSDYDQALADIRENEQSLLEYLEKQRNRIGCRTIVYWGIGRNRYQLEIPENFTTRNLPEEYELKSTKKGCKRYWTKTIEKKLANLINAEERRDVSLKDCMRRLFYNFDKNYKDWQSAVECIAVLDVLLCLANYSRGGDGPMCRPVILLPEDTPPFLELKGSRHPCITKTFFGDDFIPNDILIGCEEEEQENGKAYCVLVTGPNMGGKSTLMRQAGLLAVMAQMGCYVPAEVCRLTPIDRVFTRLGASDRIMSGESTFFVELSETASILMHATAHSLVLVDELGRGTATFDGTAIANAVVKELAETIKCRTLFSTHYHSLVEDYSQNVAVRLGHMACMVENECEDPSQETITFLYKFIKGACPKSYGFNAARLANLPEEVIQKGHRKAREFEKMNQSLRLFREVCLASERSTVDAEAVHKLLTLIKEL

Key:
[1] = target: MSH6蛋白 (endogenous, in tissue sections) (UniProt P52701); assay: immunohistochemistry on a chip of 30 normal tissues
[2] = target: MSH6蛋白 (endogenous, in tissue sections) (UniProt P52701); assay: immunohistochemistry, bladder cancer tissue section
[3] = target: MSH6蛋白 (endogenous, in tissue sections) (UniProt P52701); assay: immunohistochemistry on tissue chips
[4] = target: MSH6蛋白 (endogenous, in tissue sections) (UniProt P52701); assay: immunohistochemistry, colon cancer tissue section
[5] = target: MSH6蛋白 (endogenous, in tissue sections) (UniProt P52701); assay: immunohistochemistry, testis tissue section

Measured: binding

B1: 抗MSH6蛋白单克隆抗体 (secreted by mouse hybridoma cell line AbM58060-20A2-PU, CGMCC NO.17492) (antibody, V domains shown)
VH: EVKLQESGPSLVKPGASVKISCKASGYKFSYSWMNWVKQRPGKGLEWIGWIYPAQDVTNYNGKFRDKATLTADISSSTAYMQLSGLTSEDSAVYFCVYHGGFLDFWGQGTTLTVSS
VL: DILMTQSPLSLSVTIGQPASISCKSSQSLLFSDGKTYLNWLQQRPGQSPKRLMYQVSRLDPGIPDRFSGSGSETDFTLKISRVEADDLAIYYCSQGSFYPQTFGGGTRLEIK
binds: all assays above
